The results in this text go back to publication doi:10.1101/2021.02.17.431446.

Amino acid sequences for entries named in this document (tags omitted).
UniProt P09429: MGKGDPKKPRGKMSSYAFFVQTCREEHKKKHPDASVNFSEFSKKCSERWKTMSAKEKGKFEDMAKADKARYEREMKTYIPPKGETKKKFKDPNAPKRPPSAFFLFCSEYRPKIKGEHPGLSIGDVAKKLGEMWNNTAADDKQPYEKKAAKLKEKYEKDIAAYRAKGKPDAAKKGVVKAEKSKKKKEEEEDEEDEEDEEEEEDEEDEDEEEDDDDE

No constants are given. Whether binding was seen depends on the method and setting. In cells and extracts the contact can be indirect. Where a sequence is shown, tags or fusion partners need not be part of it.

The assay has as its target T1, HA-LXRα (human) (UniProt Q13133).
T1 sequence: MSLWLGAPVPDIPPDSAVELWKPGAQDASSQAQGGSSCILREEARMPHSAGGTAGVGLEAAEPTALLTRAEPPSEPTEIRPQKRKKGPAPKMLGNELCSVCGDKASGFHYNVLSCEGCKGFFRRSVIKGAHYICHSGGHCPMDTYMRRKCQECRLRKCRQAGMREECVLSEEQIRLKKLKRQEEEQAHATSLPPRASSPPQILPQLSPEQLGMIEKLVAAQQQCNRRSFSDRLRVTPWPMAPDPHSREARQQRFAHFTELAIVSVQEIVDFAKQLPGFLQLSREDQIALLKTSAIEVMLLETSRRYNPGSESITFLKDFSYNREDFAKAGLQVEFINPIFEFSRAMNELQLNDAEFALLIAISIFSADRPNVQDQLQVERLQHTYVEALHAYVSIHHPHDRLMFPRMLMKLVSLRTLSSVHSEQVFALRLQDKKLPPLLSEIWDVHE
As to the kind of experiment: co-IP.

Myc-HMGB1 (from UniProt P09429 1-215): the binding entry was “no binding”.
